{"source": "PubChem BioAssay AID1224828 (NIAID, 2016)", "screen": "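Regulators linking TLR4 signalling to p65 nuclear translocation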 (primary screen)", "cells": "mouse RAW264.7 G9 macrophage reporter cells (GFP-p65, Tnf promoter-mCherry)", "reagent": "siRNA pool against mouse genes, 100 nM", "duration": "2 days siRNA transfection, then 40 min LPS before fixation", "challenge": "LPS (Salmonella minnesota R595) at 10 ng/ml", "measured": "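Microscopy ratio of nuclear to perinuclear-ring GFP-p65 signal, scaled to the plate median; gene score is the average of two replicate robust z-scores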", "direction": "p65 translocation robust z-score: higher = more nuclear NF-kappaB p65 after LPS than the plate median; nuclear/cytoplasmic p65 ratio: higher = more nuclear NF-kappaB p65", "call rule": "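Active if robust z is above 3.3 (negative regulators) or below -1.56, the Tlr4 control median (positive regulators); activity score 50 or more; control wells not called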", "meaning of the calls": "active = hit (p65 shift raised or lowered); inactive = no clear change", "note": "Here is a random part of about 17,000 reagents tested. 762 of them (4.5%) count as active. 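Active calls include both raised and lowered p65 entry, mostly lowered; wells with fewer than 50 cells lack a z-score.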 Raw values are not corrected between plates. Unmarked entries are inactive."}
{"gene knocked down": "Bpnt1 (3'(2'), 5'-bisphosphate nucleotidase 1)", "p65 translocation robust z-score": -0.88, "nuclear/cytoplasmic p65 ratio, rep 1": 1.56, "nuclear/cytoplasmic p65 ratio, rep 2": 1.41, "low cell count flag": "enough cells to score"}
{"gene knocked down": "Ifna11 (interferon alpha 11)", "p65 translocation robust z-score": 0.52, "nuclear/cytoplasmic p65 ratio, rep 1": 1.6, "nuclear/cytoplasmic p65 ratio, rep 2": 1.4, "low cell count flag": "enough cells to score"}
{"gene knocked down": "Ext2 (exostosin glycosyltransferase 2)", "p65 translocation robust z-score": -0.69, "nuclear/cytoplasmic p65 ratio, rep 1": 1.35, "nuclear/cytoplasmic p65 ratio, rep 2": 1.3, "low cell count flag": "enough cells to score"}
{"gene knocked down": "Abcg1 (ATP binding cassette subfamily G member 1)", "p65 translocation robust z-score": 0.76, "nuclear/cytoplasmic p65 ratio, rep 1": 1.73, "nuclear/cytoplasmic p65 ratio, rep 2": 1.79, "low cell count flag": "enough cells to score"}

2 neighbouring entries from above:
{"gene knocked down": "Ifna11 (interferon alpha 11)", "p65 translocation robust z-score": 0.52, "nuclear/cytoplasmic p65 ratio, rep 1": 1.6, "nuclear/cytoplasmic p65 ratio, rep 2": 1.4, "low cell count flag": "enough cells to score"}
{"gene knocked down": "Ext2 (exostosin glycosyltransferase 2)", "p65 translocation robust z-score": -0.69, "nuclear/cytoplasmic p65 ratio, rep 1": 1.35, "nuclear/cytoplasmic p65 ratio, rep 2": 1.3, "low cell count flag": "enough cells to score"}

The list goes on.
{"gene knocked down": "Adat1 (adenosine deaminase, tRNA-specific 1)", "p65 translocation robust z-score": -0.42, "nuclear/cytoplasmic p65 ratio, rep 1": 1.51, "nuclear/cytoplasmic p65 ratio, rep 2": 1.66, "low cell count flag": "enough cells to score"}
{"gene knocked down": "Krt86 (keratin 86)", "p65 translocation robust z-score": 0.48, "nuclear/cytoplasmic p65 ratio, rep 1": 1.54, "nuclear/cytoplasmic p65 ratio, rep 2": 1.44, "low cell count flag": "enough cells to score"}
{"gene knocked down": "Capstert (catsper channel auxiliary subunit tau)", "p65 translocation robust z-score": -0.23, "nuclear/cytoplasmic p65 ratio, rep 1": 1.35, "nuclear/cytoplasmic p65 ratio, rep 2": 1.41, "low cell count flag": "enough cells to score"}
{"gene knocked down": "Or51h1 (olfactory receptor family 51 subfamily H member 1)", "nuclear/cytoplasmic p65 ratio, rep 1": 0.93, "nuclear/cytoplasmic p65 ratio, rep 2": 1.28, "low cell count flag": "fewer than 50 cells per well; well left out of scoring"}
{"gene knocked down": "Adra1d (adrenergic receptor, alpha 1d)", "p65 translocation robust z-score": 0.21, "nuclear/cytoplasmic p65 ratio, rep 1": 1.54, "nuclear/cytoplasmic p65 ratio, rep 2": 1.61, "low cell count flag": "enough cells to score"}
{"gene knocked down": "Slco2b1", "nuclear/cytoplasmic p65 ratio, rep 1": 1.17, "nuclear/cytoplasmic p65 ratio, rep 2": 1.04, "low cell count flag": "fewer than 50 cells per well; well left out of scoring"}
{"gene knocked down": "Slc26a4", "p65 translocation robust z-score": -0.02, "nuclear/cytoplasmic p65 ratio, rep 1": 1.45, "nuclear/cytoplasmic p65 ratio, rep 2": 1.58, "low cell count flag": "enough cells to score"}
{"gene knocked down": "Cfap69 (cilia and flagella associated protein 69)", "p65 translocation robust z-score": 0.23, "nuclear/cytoplasmic p65 ratio, rep 1": 1.41, "nuclear/cytoplasmic p65 ratio, rep 2": 1.56, "low cell count flag": "enough cells to score"}
